Source: the supplement of paper PMC12067093, “Discovery and optimisation of a covalent ligand for TRIM25 and its application to targeted protein ubiquitination” (Chemical Science, 2025)
Some of the results follow.

Amino acid sequences for entries named in this document (tags omitted).
UniProt Q00987, whole entry, looked up: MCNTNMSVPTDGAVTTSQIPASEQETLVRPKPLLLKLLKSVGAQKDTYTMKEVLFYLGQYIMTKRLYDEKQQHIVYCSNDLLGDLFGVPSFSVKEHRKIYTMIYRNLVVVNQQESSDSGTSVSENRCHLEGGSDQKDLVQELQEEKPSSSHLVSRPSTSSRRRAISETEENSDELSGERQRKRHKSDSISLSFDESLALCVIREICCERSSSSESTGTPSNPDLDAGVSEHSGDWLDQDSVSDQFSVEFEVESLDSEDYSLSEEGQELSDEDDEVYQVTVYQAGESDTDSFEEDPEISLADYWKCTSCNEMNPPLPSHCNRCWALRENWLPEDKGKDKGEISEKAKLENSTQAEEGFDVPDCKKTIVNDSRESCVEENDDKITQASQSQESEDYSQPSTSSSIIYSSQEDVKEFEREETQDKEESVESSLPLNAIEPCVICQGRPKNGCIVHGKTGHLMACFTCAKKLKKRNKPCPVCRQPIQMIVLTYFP

Target: MDM2_Q00987_77_QQHIVYCSNDLLGDLFGVPSFSVK (UniProt Q00987)
Assay: probe-labelled cysteine peptide fold change vs DMSO (competition) (log2 fold change); higher = less target engagement (more negative = stronger competition)
Details: THP-1, incubation time: 4 h
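Note: competitive profiling in live THP-1 cells: cysteine peptides tagged with an iodoacetamide desthiobiotin (IA-DTB) probe, intensity after compound treatment relative to DMSO-treated cells.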

Cc1cc(C(=O)N2CCCN(C(=O)CCl)CC2)ccc1-c1ccccc1 [compound 10]
probe-labelled cysteine peptide fold change (10 µM): 0.4
probe-labelled cysteine peptide fold change (50 µM): 0.0775
